Assay results reported in patent US20090104171A1, “Metabolic Enhancement Therapy” (priority 2007, published 2009).
At least one structure is not confirmed: it was looked up by name or label, or the drawing left a doubt.

Test: Case study Example 3: person with schizophrenia
Conditions: schizophrenic; formulation given while remaining on clozapine and lithium
From the text: Person diagnosed with schizophrenia. Hospitalized several times suffering from acute psychotic attack with hallucinations and paranoia. Treated with many typical and atypical antipsychotic drugs. […] Over the years, several diagnoses were given, including bipolar disorder, obsessive-compulsive disorder, affective disorder, and combinations thereof. Medications have included lithium, olanzapine, prozac, and several sleep medications. […] Patient went through years of treatment programs and weekly psychiatric sessions. Although they managed (with extreme difficulty) to obtain BA and MA degrees, paranoia and anxiety prevented them from working. Recent history. Patient has been on an atypical antipsychotic (clozapine) and high doses of lithium carbonate for the past 2 years. […] Patient started on Metabolic Enhancement Therapy with the disclosed formulation, while remaining on clozapine and lithium.

Compound: CN1CCN(C2=Nc3cc(Cl)ccc3Nc3ccccc32)CC1 [clozapine]
- relief of symptoms (anxiety, obsessive compulsive behavior, psychosis): Obsessive-compulsive behavior progressively deteriorated
